Reference: patent US20210253713A1 (ABEXXA BIOLOGICS, published 2021)
No constants are given. Whether binding was seen depends on the method and setting. Some entries that bind do so weakly or less than the wild type.

What was measured:
[1] = target: T1, HLA-E/… peptide complex (soluble, biotin-labeled) (human) (UniProt P13747+P61769); assay: ELISA, immobilized antibody, soluble complex (FIG. 1A)
[2] = target: T2, HLA-E/… target on tumor cells (JEG-3 and JVM-2 cells, positive for HLA-E and HLA-G) (human) (UniProt P13747+P61769); assay: flow cytometry on JEG-3 and JVM-2 cells, antibody at 1 ug/ml
[3] = target: T1, HLA-E/… peptide complex (soluble, biotin-labeled) (human); assay: ELISA, biotin-labeled complex on neutravidin plates, soluble bivalent IgG1, anti-human-HRP
[4] = target: T2, HLA-E/… target on tumor cells (JEG-3 and JVM-2 cells, positive for HLA-E and HLA-G) (human); assay: flow cytometry on JVM-2 cells, goat anti-human IgG-APC (FIG. 4B)
[5] = target: T2, HLA-E/… target on tumor cells (JEG-3 and JVM-2 cells, positive for HLA-E and HLA-G) (human); assay: flow cytometry on JEG-3 cells, goat anti-human IgG-APC (FIG. 3B)
[6] = target: T1, HLA-E/… peptide complex (soluble, biotin-labeled) (human); assay: validation of phage scFv clones after the third round of panning

Measured: binding

B1: MAB-031 (anti-HLA-E/…) (antibody, V domains shown)
VH: QVQLQQSGPELVKPGASVKMSCKASGYTFTDYVISWVKQRTGQGLEWIGEIYPGNNTTYYNDNFRGKATLTVDKSSSTAYMQLSSLTSEDSAVYYCARESLGIYYGSTYKGLYAMDYWGQGTTLTVSS
VL: QIVLTQSPAIMSASPGEKVTITCSASSSVSYMHWFQQKPGTSPKLWIYSTSNLASGVPARFSGSGSGTSYSLTISRMEAEDAATYYCQQRSSYPPTFGAGTKLELKR
notes: also called MAB31; MAB-31
not listed: [6]
binds: all other assays above

B2: scFv clone used to produce MAB-031 (scFv, V domains shown)
VH: B1 VH
VL: B1 VL
binds: [6]
